# Results are given in words; binding and its absence hold for the method and conditions named. Binding seen in cells or lysates may run through a third protein. Some results given as binding are weak or reduced against the parent protein; the word gives no strength.
# Chains of the proteins cited; added tags and fusions are not shown.
# UniProt A0ACI6NKV9: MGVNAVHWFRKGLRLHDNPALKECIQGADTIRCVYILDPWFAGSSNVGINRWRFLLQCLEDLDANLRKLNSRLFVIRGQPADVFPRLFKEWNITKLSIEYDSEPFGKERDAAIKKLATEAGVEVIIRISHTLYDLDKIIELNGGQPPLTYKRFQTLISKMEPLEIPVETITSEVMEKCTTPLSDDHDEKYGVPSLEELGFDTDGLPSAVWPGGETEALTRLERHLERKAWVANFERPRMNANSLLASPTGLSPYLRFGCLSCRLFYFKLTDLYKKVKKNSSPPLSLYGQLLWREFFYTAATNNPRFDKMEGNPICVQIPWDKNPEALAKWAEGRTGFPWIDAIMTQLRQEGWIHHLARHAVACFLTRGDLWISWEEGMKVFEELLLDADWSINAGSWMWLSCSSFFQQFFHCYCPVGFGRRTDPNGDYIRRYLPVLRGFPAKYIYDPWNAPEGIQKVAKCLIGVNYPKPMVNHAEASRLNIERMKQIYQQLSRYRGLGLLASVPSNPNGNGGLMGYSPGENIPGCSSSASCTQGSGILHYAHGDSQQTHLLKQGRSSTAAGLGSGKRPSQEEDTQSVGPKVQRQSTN
# Target: T1, mouse Fbxl21 (mouse) (UniProt Q8BFZ4)
# T1 sequence: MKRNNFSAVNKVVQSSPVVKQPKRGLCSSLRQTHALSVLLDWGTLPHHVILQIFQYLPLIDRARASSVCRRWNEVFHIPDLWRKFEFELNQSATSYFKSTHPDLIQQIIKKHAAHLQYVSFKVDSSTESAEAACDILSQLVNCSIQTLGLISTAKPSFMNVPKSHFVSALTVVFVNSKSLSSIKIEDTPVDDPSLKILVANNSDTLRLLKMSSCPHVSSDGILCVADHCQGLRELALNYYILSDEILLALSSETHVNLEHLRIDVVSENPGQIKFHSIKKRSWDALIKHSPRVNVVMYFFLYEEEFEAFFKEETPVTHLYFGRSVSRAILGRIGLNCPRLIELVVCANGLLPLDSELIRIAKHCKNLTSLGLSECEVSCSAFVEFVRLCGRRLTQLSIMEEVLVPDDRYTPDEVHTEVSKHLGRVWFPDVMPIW
# Experiment: co-IP; COS7 cells co-transfected with Myc-Fbxl and Flag-Cry1 vectors, harvested 48 h post-transfection in IP buffer (150 mM NaCl, 5 mM EDTA, 0.5% Nonidet P40, 50 mM Tris pH 7.8); supernatant incubated overnight at 4°C with anti-Myc affinity resin; Western blot with anti-Myc or anti-Flag
substance,measurement,value
"ovine CRY1 (Cryptochrome 1), Flag-tagged (from UniProt A0ACI6NKV9 1-587)",binding,binds

# From publication PMC2568807
